Measured values: patent publication US20250171508A1 (published 2025)

Experiment: general procedure: Fmoc solid-phase peptide synthesis
Conditions: whole synthesis, 220 nm

Row | Sequence | final HPLC purity [%]
1 | AADQPENHQALAEPVTGVGEAGVSPVNEAGESYSSATSGVQ | 95
2 | AGIKLTVPIEKFPVTTQTFVVGC | 99
3 | DKKSTAAVILTPTEN | 97
4 | EVPPPNAQELPPPNSQELPPPNSQELP | 95
5 | FLVAAALGGLAADQPENHQALAEPVTGVGEAGVSPVNEAG | 95
6 | FRKRGVRSDAEVTDDNIYEEHTDRK | 95
7 | GQGDSLAEDDTTSEAAEGDVDPFPVLANEGK | 96
8 | GSFLMPVKPHANADDFASDDNYET | 95
9 | GTSTNESASENSEDDTFHDALQE | 96
10 | GVQEATAPGAVLLEAIDAESDKVDNQAEGGE | 96
11 | KDSSSSESTVTPADEAASESEEGDKTS | 97
12 | LVAAALPQFATAATASDDELMSRIRNSDFFD | 96
13 | PAGNNDGSSAPTPK | 98
14 | PALEQEVPESGEDGE | 95
15 | PPPPTQGEQPEGQQP | 99
16 | TGSSGGQQEAVGTTEDYVNSSAM | 96
17 | VFQCGDKLTISPSGEGDVFYGKE | 96

Where a sequence shows no end group, the ends are not given.
